Measured values taken from patent publication US20080222745A1, “Colcemid-Treatment of Oocytes to enhance Nuclear Transfer Cloning” (Utah State University, priority 2007, published 2008).
Like-named read-outs stand apart in the source and are kept apart here.

Columns and labels:
[1] = system: maturation promoting factor (MPF)
bovine NT embryos = details: 0.2 and 0.4 μg/ml; 2 to 6 hr; oocytes matured 16-17 hr
MAP kinase (ERK2) = details: 0.4 μg/ml colcemid after 15 hr IVM; 18, 20, 22 hours; p<0.05

CN[C@H]1CCc2cc(OC)c(OC)c(OC)c2-c2ccc(OC)c(=O)cc21 [colcemid, N-deacetyl-N-methylcolchicine]
No. of Oocytes Responding to electroporation with IP3 (bovine oocytes; 18 hr maturation, 3 hr colcemid (0.4 μg/ml), 9 oocytes tested): 7 | No. of Oocytes Responding to electroporation with IP3 (bovine oocytes; 20 hr maturation, 5 hr colcemid (0.4 μg/ml), 9 oocytes tested): 9 | No. of Oocytes Responding to electroporation with IP3 (bovine oocytes; 22 hr maturation, 7 hr colcemid (0.4 μg/ml), 10 oocytes tested): 10 | relative mean MPF activity vs oocytes matured without colcemid ([1]; 0.4 μg/ml colcemid after 15 hr IVM, p<0.0001): significantly higher | MPF activity vs every other time and treatment combination ([1]; colcemid treated oocytes matured for 22 hrs): significantly higher | effect of colcemid concentration and treatment time on NT embryo development to blastocyst and hatching blastocyst stages (bovine NT embryos): did not affect | relative activity of MAP kinase, colcemid treated vs control oocytes (MAP kinase (ERK2)): significantly different
